Source: PMC5438128
Results are given in words; binding and its absence hold for the method and conditions named. In cells and extracts the contact can be indirect. Some results given as binding are weak or reduced against the parent protein; the word gives no strength. Where a sequence is shown, tags or fusion partners need not be part of it.

By UniProt entry, the sequences of proteins in these tests, tags left out.
UniProt P32121: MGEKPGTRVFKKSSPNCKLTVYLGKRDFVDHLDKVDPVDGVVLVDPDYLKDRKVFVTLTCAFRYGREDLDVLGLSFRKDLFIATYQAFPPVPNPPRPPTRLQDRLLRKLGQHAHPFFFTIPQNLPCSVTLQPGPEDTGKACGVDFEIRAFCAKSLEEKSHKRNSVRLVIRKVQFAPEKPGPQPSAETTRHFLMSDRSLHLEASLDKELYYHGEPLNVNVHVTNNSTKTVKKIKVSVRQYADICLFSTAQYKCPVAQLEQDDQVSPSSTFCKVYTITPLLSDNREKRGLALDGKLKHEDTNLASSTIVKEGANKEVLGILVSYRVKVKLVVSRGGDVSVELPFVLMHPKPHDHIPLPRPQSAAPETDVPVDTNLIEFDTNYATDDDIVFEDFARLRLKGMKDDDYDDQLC

How the values were obtained:
[1] = target: T1, mouse free fatty acid receptor 4 with N-terminal FLAG epitope and C-terminal eYFP (mouse) (UniProt Q7TMA4); experiment: condition: only with 10 µM AH-7614 (small-molecule negative allosteric modulator of FFA4); FRET or BRET; BRET in live HEK293T cells coexpressing mFFA4-eYFP and β-arrestin-2-Renilla luciferase; pretreated for 30 minutes with 10 µM AH-7614, then TUG-891, Cpd A, GSK137647A or TUG-1197
T1 sequence: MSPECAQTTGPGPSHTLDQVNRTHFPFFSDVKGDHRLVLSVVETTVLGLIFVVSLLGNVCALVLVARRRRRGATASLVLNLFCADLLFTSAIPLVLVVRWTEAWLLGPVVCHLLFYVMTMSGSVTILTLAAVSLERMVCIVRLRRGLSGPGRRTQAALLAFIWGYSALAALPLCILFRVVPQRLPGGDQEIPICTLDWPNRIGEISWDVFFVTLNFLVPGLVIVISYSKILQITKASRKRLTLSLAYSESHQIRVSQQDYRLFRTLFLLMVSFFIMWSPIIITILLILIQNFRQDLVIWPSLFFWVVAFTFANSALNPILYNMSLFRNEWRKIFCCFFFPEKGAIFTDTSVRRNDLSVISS

[2] = target: T1, mouse free fatty acid receptor 4 with N-terminal FLAG epitope and C-terminal eYFP (mouse); experiment: FRET or BRET; BRET in live HEK293T cells cotransfected with eYFP-tagged receptor and β-arrestin-2 Renilla luciferase plasmid (4:1); HBSS, 37°C; 2.5 µM coelenterazine h for 10 min, then FFA4 agonist (aLA, TUG-891, TUG-1197, GSK137647A or Cpd A) for 5 min; preincubation with vehicle, AH-7614, TUG-1506 or TUG-1387; ratio of 535/475 nm

binding [1]: no binding | binding [2]: binds
Substance: β-arrestin-2 Renilla luciferase (from UniProt P32121 1-409)
